The values that follow come from the supplement of paper PMC5949888.

Most values lie at the floor of the assay. Slopes are relative: functional sequences can read slightly below zero.

The test system of this series is Saccharomyces cerevisiae PS128 hsf1 delta, HSF1(1-493) fusion. Briefly: growth estimate (transactivation domain function in HSF1 fusion, heat-shock survival) (a.u. (slope of normalised read count over time)); higher = stronger growth at 37°C, i.e. more transactivation activity. The note with it: library: random library.
On to TWDTWATRSGSLA, for which the growth estimate was -0.246.

For LGSAQST, the growth estimate was below -0.25. The value for DGRDSVARKASRMDGLLLHR was below -0.25; that for VMGA was below -0.25. As to PTAV, the growth estimate is below -0.25. Consider VYLF, for which the growth estimate was below -0.25. SGKRDARTRQVTTHRFSRAC: the growth estimate is below -0.25. Consider GHADLLKQLS, for which the growth estimate is below -0.25. For GPEWYVTGDVQRCRWRTLSY, the growth estimate was below -0.25. Take GALMSRC: the growth estimate was below -0.25. Take ADRGLPD: the growth estimate was below -0.25. Regarding HVTVKFLSRQS, the growth estimate was below -0.25. With IWALCRQNISSHNCTL the figure was below -0.25; with VLTRLIDWKFDIAERLDSCF, below -0.25; with TPSHRPA, below -0.25. In the case of SSNKV, the growth estimate is below -0.25. As for PSCTGILPAVRPLRPARSPL, the growth estimate was below -0.25.

As for PDQNDV, the growth estimate was below -0.25. As for FDTDCEHSEYVYLGAALF, the growth estimate is below -0.25.

For CKYAVSAP, the growth estimate is below -0.25. The value for ARAVMASPTTEQESSFHRRR was below -0.25. Take ASRLWRHIRVFGFLSRSAER: the growth estimate is below -0.25.

For LGSVFGPQAVYQ, the growth estimate was below -0.25. Regarding NSTLIIT, the growth estimate was below -0.25.

Consider CHGPCLYGQCRFD, for which the growth estimate is below -0.25. VSPVGT: the growth estimate is below -0.25. The value for SNQ was below -0.25; that for EIGYSLPVTAVTILS was below -0.25. For the substance DFRWRMNCALGATVFYRVSG, the growth estimate was below -0.25. Consider CCVDTGVETSREQSARIISG, for which the growth estimate was -0.245. As for WKSGCQRSC, the growth estimate was below -0.25. For RSGVSAD, the growth estimate is -0.246. For RML, the growth estimate was below -0.25.

For the substance WTRSRGDQRAPKIRWHRTLG, the growth estimate is below -0.25. Take LRSGTVVVHYAGV: the growth estimate was below -0.25.

As for VIG, the growth estimate was below -0.25. The value for KSHHEGSIPSGRDSSPALVA was below -0.25; that for PGTMRDRLTCYWSQETSGLS was below -0.25; that for YRLL was below -0.25. With VVNENLPVWRF the figure was below -0.25.

Turning to RYGKGAVPILFCEVYLTATR, the growth estimate was below -0.25.

With GGVSSGGEICIRRFCFKSLI, the growth estimate was below -0.25. For the substance SFWSKVRVLKCRAYSRALGS, the growth estimate was below -0.25.

As for AVNISLLFKRAFAVAFMGDA, the growth estimate is below -0.25.

Take SWFKLADAARETRLGTRPSS: the growth estimate was below -0.25. As for IRGVNSASAYIYMNQGFTDI, the growth estimate was below -0.25. As for GGIPIFAAAKLHRGMRAGRG, the growth estimate was below -0.25.

For NIRWPLYLCTGSHRTGPEQV, the growth estimate was below -0.25.

As for GCGANVGNDGNRLRRRQCFS, the growth estimate is below -0.25. As for VWITDGGAPRLRGICGRTRC, the growth estimate is below -0.25. For SHQFATQRLRFCRKDLQCPH, the growth estimate was below -0.25. For STKVENWGAGSEYTLFCLVS, the growth estimate was below -0.25. As for GLLWEVN, the growth estimate is below -0.25. Regarding QTEGAFSDIYFEQAFSHRVS, the growth estimate was below -0.25.

With MPLLPRGDARTSRDSSKVCS, the growth estimate was below -0.25. As to VLPKCAAGGYKSWHINSCGR, the growth estimate is below -0.25. Consider PAGHYIPFKNES, for which the growth estimate is below -0.25. For PESG, the growth estimate was below -0.25. The value for FHVARRMGRCGVTVCVKVRL was below -0.25; that for GDLRPAGWSYIAGLLVLD was -0.242.

As for TGSIMVRLCWPFLGMPCYHL, the growth estimate was below -0.25.

Consider SEGESVGTADACPYRPSYWQ, for which the growth estimate is 1.62. Take KQV: the growth estimate is below -0.25. Consider AVVARRYG, for which the growth estimate is below -0.25. On to RITM, for which the growth estimate is below -0.25. For LSGILFI, the growth estimate is below -0.25. Consider SNKTTR, for which the growth estimate is below -0.25. The value for SRTIVGVLPVPEV was below -0.25; that for LWQIRFL was -0.243; that for RAGAGGIGLSIDGRE was below -0.25. With TRGLGFVKSLEWVSPNGLFW the figure was below -0.25; with PPRVYEHAGHRLISGTGDGA, below -0.25; with LGNV, below -0.25. For PCA, the growth estimate is below -0.25. On to ALKDGHLLRSTPMGVSALLC, for which the growth estimate was below -0.25. As to SCTISLF, the growth estimate is below -0.25.

As to WSAGSFKLRADLRCITGSPG, the growth estimate was below -0.25. As for NSDGAYVPQALAKLECRFER, the growth estimate was below -0.25. Turning to GHGVLG, the growth estimate was -0.218. With TKSGWGSWGPQVICS, the growth estimate was below -0.25.
